Laboratory results from paper PMC7793253, “CEP290 is essential for the initiation of ciliary transition zone assembly” (PLoS Biology, 2020).
These are yes or no findings as the source states them, for the method shown. In cells and extracts the contact can be indirect. Binding can be weak; no strength is given. Tags and fused reporters may be left off the sequences shown.

Molecular target: T1, DZIP1-GFP (Drosophila) (UniProt Q9VC70)
T1 sequence: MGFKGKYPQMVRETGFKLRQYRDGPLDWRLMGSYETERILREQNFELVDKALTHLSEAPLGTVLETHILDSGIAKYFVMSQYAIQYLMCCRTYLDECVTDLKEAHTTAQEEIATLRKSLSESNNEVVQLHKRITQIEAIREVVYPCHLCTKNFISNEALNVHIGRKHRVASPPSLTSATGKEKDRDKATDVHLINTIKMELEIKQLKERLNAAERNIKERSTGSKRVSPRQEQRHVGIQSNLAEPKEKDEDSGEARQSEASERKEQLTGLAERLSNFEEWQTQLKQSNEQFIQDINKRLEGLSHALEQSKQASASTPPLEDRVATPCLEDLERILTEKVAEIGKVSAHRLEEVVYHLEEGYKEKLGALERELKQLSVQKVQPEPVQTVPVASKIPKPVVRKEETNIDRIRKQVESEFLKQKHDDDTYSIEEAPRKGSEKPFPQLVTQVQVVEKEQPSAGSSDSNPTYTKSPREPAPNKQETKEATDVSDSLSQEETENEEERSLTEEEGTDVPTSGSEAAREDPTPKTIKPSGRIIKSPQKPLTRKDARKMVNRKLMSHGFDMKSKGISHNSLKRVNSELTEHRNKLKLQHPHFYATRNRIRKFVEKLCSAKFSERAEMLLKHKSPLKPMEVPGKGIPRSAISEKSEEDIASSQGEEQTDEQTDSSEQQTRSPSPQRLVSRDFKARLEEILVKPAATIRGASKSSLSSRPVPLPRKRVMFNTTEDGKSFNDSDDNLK
Test: co-IP; Drosophila S2 cells transiently transfected, 48 h; lysis in 10 mM Tris pH 7.5, 150 mM NaCl, 0.5 mM EDTA, 0.5% NP-40; anti-GFP nanobody agarose (GFP-trap) beads, 1 h at 4°C; blot with anti-GFP and anti-HA

CBY-HA (Drosophila)
binding: binds
